Measurements: patent publication US20180237756
Numbering of substitutions follows the chain as printed. Construct, isoform or probe ends are uncertain for at least one entry. Where a protein sequence is shown, tags need not be part of it.

Key:
Experiment in all cases: activity assay
[1] = molecular target: T1, TNQ (TgoT Y409N E664Q) (Thermococcus gorgonarius) (UniProt P56689); conditions: primer strand is RNA; supF tRNA synthesis, 65 C; purified recombinant protein; label: 5'FITC primer; DNA:RNA hybrid
T1 sequence (limits assumed): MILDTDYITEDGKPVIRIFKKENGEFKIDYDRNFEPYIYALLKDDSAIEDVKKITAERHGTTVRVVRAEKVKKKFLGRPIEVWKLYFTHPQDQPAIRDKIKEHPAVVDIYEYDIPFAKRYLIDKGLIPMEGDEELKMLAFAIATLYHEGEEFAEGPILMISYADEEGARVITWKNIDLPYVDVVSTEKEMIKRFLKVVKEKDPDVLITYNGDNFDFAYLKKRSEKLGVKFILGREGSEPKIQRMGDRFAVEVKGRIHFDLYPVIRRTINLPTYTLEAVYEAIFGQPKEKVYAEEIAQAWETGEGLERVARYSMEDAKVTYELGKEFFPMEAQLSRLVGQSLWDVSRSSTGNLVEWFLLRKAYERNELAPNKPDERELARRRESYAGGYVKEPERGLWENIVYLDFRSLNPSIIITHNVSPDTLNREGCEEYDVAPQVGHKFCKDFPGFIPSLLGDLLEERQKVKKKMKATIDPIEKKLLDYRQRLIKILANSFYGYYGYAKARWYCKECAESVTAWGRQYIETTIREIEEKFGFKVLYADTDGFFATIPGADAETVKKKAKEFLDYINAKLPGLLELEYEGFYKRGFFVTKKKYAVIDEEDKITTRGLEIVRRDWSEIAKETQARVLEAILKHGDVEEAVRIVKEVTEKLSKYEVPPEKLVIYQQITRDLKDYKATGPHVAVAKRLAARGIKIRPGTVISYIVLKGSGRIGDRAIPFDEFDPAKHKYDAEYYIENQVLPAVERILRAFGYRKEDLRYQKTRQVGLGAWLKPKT

[2] = molecular target: T2, D4N (D4 Y409N, D4N3) (Thermococcus gorgonarius) (UniProt P56689); conditions: primer strand is RNA; 65-nt supF tRNA synthesis, 65 C; purified recombinant protein; label: 5'FITC primer; DNA:RNA hybrid
T2 sequence (limits assumed): T1 sequence (limits assumed) with P657T, E658Q, K659H, Y663H, D669A, K671N, T676I

[3] = molecular target: T3, TGK (TgoT Y409G E664K) (Thermococcus gorgonarius) (UniProt P56689); conditions: primer strand is RNA; supF tRNA synthesis, 65 C; purified recombinant protein; label: 5'FITC primer; DNA:RNA hybrid
T3 sequence (limits assumed): T1 sequence (limits assumed) with N409G, Q664K

## CAGGAAACAGCTATGACAAATGGTGGTGGGG / GGTGGGGTTCCCGAGCGGCCAAAGGGAGCAGACTCTAAATCTGCCGTCATCGACTTCGAAGGTTCGAATCCTTCCCCCACCACCA [YtRHNA2HNA2 RNA primer / tRNAtemp1]
[1]
  activity on this sequence (min to full length): < 10
[2]
  activity on this sequence (min to full length): 20
[3]
  activity on this sequence (s to full length): < 30
